# Several values for one entry are separate records, joined by “and”; a condition that tells them apart may be missing. Where a call stands in place of a potency, no number is given. Identical values can stand only once. Among all 340,000 compounds or so, about 6,200 (1.8%) were called active. Inconclusive results, whose numbers are uncertain, are shown with a selection of clear calls. Calls follow the shape of the dose curve; as a rule, active = well fitted activation curve with a large enough effect; inconclusive = small, poorly fitted or top-dose-only effect; inactive = no such curve, though single readings can be large or run the other way. Where the call is inconclusive, the potency comes from a doubtful curve fit.
# Assay: A quantitative high throughput screen for small molecules that induce DNA re-replication in SW480 colon adenocarcinoma cells. Also: nearly all actives have a fitted effect of over 55% in size.
# Settings: Hoechst DNA content imaging, 48 h; series mostly up to 46.1 µM
# How it was run: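 250 cells/well; 23 nL cpd via pin tool; 48 hr, 37 C, 5% CO2; Hoechst 40 min; imager read of total nuclear intensity, ex 405/em 500-530 nm.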
# Potency is read from the fitted curve at half-maximal effect.
row,SMILES,Potency
1,Cc1ccc(-n2nc3c(=O)n(CCCC(=O)NCc4ccccc4F)nc(C)c3c2C)cc1,inactive
2,Cc1cc(C)c(S(=O)(=O)c2c(C)cccc2C)c(Cl)n1,"inconclusive: 18.4 µM [activator, partial curve, poor fit]"
3,Cc1cc(NC(=O)c2c(-c3ccccc3Cl)noc2C)no1,inactive
4,CC(C)CNC(=O)C1CCN(CC2CCCCC2)CC1,inactive
5,Cc1ccc(S(=O)(=O)c2cn(C)c3cc(N4CCOCC4)c(F)cc3c2=O)cc1,inactive
6,Cn1ncc(N=Cc2ccccc2)c1C(=O)Nc1cccc(Cl)c1,"inconclusive: 18.4 µM [activator, single point]"
7,CCOC(=O)CCc1ccc(NC(=O)/C=C/c2ccc([N+](=O)[O-])o2)cc1,active: 7.31 µM
8,COc1ccc(N2CCN(C(=O)c3cccc(N4C(=O)C5C6C=CC(C6)C5C4=O)c3)CC2)cc1 (stereo unspecified),inactive
9,O=C(CNC(=S)N(CCCN1CCOCC1)Cc1cccs1)NCc1ccccc1Cl,inactive
10,N#C/C(=C/c1cccc([N+](=O)[O-])c1)C(=O)Nc1ccccc1O,"inconclusive: 20.6 µM [activator, single point]"
11,CN(/C=C/C(=O)C(F)(F)F)Cc1ccccc1,inactive
12,CSc1cccc(NC(=O)COC(=O)C2CCN(S(=O)(=O)c3ccccc3)CC2)c1,"inconclusive: 18.4 µM [activator, single point]"
13,Cc1ccc2cc(C(c3nnnn3C3CCCC3)N(Cc3cccnc3)Cc3ccco3)c(=O)[nH]c2c1 (stereo unspecified),"inconclusive: 16.4 µM [activator, single point]"
14,COc1ccc(-c2nnc(-c3ccc(F)cc3)o2)cc1,inactive
15,CC(C)(C)[C@]1(O)CCN2C[C@H]3c4ccccc4CCc4cccc(c43)[C@@H]2C1,"inconclusive: 29.1 µM [activator, single point] and inconclusive: 28.2 µM [activator, single point]"
16,COC(=O)c1ccc(C)cc1C1CN=NC12Cc1cc(C)ccc1C2=O (stereo unspecified),"inconclusive: 25.9 µM [activator, partial curve, poor fit]"
17,CCOC(=O)c1c[nH]n(-c2ccc(C)cc2)c1=O,inactive
18,Cc1ccc2nc(C)c(C(=O)N/N=C/c3cccs3)cc2c1,inactive
19,O=S(=O)(c1cccs1)N1CCN(CC(O)COc2cc(Cl)ccc2Cl)CC1 (stereo unspecified),inactive
20,Cn1cc([N+](=O)[O-])c(C(=O)Nc2ccn(Cc3c(F)c(F)cc(F)c3F)n2)n1,"inconclusive: 29.1 µM [activator, single point]"
21,COc1ccc(Nc2oc(-c3ccccc3)nc2C#N)cc1,inactive

# Reference: PubChem BioAssay AID624297 (National Center for Advancing Translational Sciences (NCATS), 2012)
